Test results as given in patent publication US20160354465A1.
No constants are given. Whether binding was seen depends on the method and setting. In cells and extracts the contact can be indirect. Some entries that bind do so weakly or less than the wild type.

By UniProt entry, the sequences of proteins in these tests, tags left out. Where a name states a change or a piece, a line headed by the entry shows the natural chain unless it says otherwise. Chains listed by the source or under a name are the forms on record and can include a tag or linker.
UniProt Q16620: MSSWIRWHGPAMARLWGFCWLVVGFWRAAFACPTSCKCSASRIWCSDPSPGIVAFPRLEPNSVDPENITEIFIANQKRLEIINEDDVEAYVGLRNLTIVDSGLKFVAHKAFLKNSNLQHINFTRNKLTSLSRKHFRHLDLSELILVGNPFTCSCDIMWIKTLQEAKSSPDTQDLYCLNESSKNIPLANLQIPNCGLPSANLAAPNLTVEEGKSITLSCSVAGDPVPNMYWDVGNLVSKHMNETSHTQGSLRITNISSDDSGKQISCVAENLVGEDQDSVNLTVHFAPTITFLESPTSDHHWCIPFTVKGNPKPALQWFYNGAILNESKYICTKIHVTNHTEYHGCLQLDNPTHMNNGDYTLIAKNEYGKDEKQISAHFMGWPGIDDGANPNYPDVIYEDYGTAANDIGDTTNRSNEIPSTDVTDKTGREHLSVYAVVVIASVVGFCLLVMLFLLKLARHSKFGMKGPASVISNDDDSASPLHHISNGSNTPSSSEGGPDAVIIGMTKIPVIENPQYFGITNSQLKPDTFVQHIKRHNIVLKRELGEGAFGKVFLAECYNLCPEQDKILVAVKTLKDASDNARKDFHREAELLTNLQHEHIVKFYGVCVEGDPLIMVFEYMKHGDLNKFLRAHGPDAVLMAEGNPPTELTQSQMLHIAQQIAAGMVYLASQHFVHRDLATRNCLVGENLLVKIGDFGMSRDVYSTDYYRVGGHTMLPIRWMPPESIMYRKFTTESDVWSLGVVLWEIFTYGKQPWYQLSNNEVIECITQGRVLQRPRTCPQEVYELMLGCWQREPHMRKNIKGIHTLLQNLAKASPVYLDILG
UniProt Q63604: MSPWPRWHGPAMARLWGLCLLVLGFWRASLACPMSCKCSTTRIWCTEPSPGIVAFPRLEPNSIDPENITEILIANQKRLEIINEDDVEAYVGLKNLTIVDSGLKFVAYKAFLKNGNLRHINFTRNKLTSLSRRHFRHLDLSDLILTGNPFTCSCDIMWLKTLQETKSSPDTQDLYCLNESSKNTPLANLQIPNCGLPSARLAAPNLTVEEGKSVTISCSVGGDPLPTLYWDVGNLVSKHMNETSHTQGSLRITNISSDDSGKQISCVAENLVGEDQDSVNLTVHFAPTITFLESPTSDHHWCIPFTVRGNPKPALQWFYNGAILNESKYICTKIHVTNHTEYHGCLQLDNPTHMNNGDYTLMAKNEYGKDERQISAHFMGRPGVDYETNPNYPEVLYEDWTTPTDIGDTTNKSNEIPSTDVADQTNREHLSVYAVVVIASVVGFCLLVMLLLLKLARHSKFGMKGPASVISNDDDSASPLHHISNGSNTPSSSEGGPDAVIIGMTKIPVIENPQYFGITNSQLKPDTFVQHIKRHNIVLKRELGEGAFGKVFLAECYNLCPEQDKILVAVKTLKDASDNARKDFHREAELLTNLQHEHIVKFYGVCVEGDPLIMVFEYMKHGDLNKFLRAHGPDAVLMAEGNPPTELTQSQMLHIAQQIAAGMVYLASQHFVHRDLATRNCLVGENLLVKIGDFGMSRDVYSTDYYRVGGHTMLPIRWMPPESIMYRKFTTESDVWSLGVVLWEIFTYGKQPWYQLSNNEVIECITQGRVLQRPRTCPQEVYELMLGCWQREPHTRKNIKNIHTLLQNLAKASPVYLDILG
UniProt Q96FE5: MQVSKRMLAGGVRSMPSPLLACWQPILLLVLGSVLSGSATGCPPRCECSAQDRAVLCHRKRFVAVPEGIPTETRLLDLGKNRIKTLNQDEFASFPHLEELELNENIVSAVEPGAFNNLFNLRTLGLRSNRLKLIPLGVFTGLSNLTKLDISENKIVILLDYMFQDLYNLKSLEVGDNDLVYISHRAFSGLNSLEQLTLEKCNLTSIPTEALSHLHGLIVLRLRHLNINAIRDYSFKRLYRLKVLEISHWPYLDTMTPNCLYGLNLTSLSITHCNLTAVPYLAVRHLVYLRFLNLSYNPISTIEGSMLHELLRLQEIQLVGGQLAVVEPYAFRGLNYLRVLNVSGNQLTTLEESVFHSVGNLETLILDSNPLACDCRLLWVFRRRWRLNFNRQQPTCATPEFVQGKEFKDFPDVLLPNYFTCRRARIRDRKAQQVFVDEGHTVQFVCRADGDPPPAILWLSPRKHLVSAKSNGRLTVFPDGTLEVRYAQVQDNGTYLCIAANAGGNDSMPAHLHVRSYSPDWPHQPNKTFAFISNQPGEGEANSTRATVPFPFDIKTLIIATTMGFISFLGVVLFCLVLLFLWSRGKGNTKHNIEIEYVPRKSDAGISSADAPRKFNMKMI
LINGO-1 of rat retina (endogenous) (A0A8I5ZPI2, form named): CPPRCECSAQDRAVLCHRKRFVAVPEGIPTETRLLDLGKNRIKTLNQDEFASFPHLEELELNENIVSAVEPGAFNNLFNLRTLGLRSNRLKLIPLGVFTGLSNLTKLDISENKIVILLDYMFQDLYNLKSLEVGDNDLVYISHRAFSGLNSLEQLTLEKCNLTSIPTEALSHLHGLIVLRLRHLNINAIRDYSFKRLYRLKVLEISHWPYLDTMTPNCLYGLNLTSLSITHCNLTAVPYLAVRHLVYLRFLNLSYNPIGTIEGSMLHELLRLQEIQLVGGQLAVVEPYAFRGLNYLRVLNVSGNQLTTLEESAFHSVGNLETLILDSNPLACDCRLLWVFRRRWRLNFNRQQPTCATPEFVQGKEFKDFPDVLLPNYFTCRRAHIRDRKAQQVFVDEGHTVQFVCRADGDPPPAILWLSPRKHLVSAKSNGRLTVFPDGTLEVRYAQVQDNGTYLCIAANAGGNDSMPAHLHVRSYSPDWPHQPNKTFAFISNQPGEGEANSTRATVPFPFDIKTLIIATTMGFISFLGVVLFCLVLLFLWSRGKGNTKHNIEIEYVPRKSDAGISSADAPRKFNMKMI

How the values were obtained:
[1] = target: myc-tagged full length human TrkB (human) (UniProt Q16620); assay: restates the in vitro co-immunoprecipitation
[2] = target: myc-tagged full length human TrkB (human) (UniProt Q16620); assay: co-immunoprecipitation from lysates of transfected 293T cells (IP with anti-LINGO-1, western blot with anti-myc for TrkB)
[3] = target: TrkB of rat retina (endogenous) (rat) (UniProt Q63604); assay: co-immunoprecipitation from rat retinal lysates (IP with anti-TrkB, western blot with anti-LINGO-1)

Row | Substance | binding [1] | binding [2] | binding [3]
1 | HA-tagged full length human LINGO-1 (from UniProt Q96FE5 42-620) (receptor) | binds | binds | –
2 | LINGO-1 of rat retina (endogenous) (from UniProt A0A8I5ZPI2 36-614) (receptor) | – | – | binds
